This is one part of the list. Further columns of the screen follow, without active or inactive calls. Compounds called inactive in the main read-out are mostly missing here. Words in brackets tell the shape of the fitted curve; partial curves, single points and poor fits give uncertain potencies.
Assay: qHTS Assay for Lipid Storage Modulators in Drosophila S3 Cells;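 for cell number change: cells counted by Cell Tracker Red CMTPX staining in the red channel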
Details: BODIPY lipid droplet fluorescence, 18-24 h; for cell number change: measured here: cell count max response, cells fed with added oleic acid
Outline: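 Drosophila S3 cells loaded with oleic acid (400 uM, as added) and compounds at several concentrations; lipid droplets imaged by 488-nm laser-scanning cytometry, 500–530 nm intensity and object ratio to cell channel. Percent activity normalized to 20 uM Triacsin C.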

[1] = measured here: lipid fluorescence (Fed channel) AC50, cells fed with added oleic acid
[2] = measured here: cell number channel AC50, cells fed with added oleic acid

Structure (SMILES) | cell number change [%] | AC50 [1] | AC50 [2]
Cc1ccnc(NC(=O)c2ccccc2NC(=O)c2ccc(Cl)cc2Cl)c1 | -16.2 | 29.1 µM [falling, single point] | –
O=C1CC(c2ccc(Cl)cc2)CC(O)=C1C=NCCN1CCNCC1 (configuration not stated) | 16.4 | 29.1 µM [rising, single point] | –
CC(C)CC(=O)N=Nc1c(O)[nH]c2ccccc12 | 9.38 | 1.64 µM [rising, single point] | 2.59 µM [rising, single point]
C/C(=N\S(=O)(=O)c1ccc(C)cc1)NC(=S)Nc1ccccc1 | 4.19 | – | –
CCc1ccc(C(=O)NNC(=O)C2CSC3(C)CCC(=O)N23)cc1 (configuration not stated) | -24.9 | – | 0.0731 µM [falling, full curve, poor fit]
COc1ccc(C(=O)Nc2ccccn2)cc1S(=O)(=O)N1CCOCC1 | 2.27 | – | 0.13 µM [rising, full curve, poor fit]
CCCCOc1ccc(NC(=O)CSc2cccc3cccnc23)cc1 | 0.563 | – | –
CC(C)c1ccc(C(CC(=O)O)NC(=O)c2cccs2)cc1 (configuration not stated) | -4.41 | 0.103 µM [falling, full curve, poor fit] | –
Cc1ccc(NS(=O)(=O)c2cccc(C(=O)NNC(=O)NC3CCCCC3)c2)c(C)c1 | – | 6.51 µM [falling, single point] | –
NS(=O)(=O)c1ccc2nc(NC(=O)c3ccc4c(c3)OCCO4)sc2c1 | -19.1 | 29.1 µM [rising, single point] | –
CC(CNC(=O)CCn1ccc2cc(S(=O)(=O)N3CCCC3)ccc21)c1ccccc1 (configuration not stated) | – | 3.26 µM [rising, partial curve] | –
COc1ccc(CNC(=O)CN2CCC(NC(=O)c3ccc(OC)cc3)CC2)cc1 | -0.806 | 0.82 µM [falling, partial curve, poor fit] | –
O=C1CC(N2CCN(c3ccc(F)cc3)CC2)C(=O)N1Cc1ccc(N2CCCC2=O)cc1 (configuration not stated) | -25.6 | 0.184 µM [falling, full curve, poor fit] | –
CCOc1ccc(C(=O)COC(=O)c2cc(=O)[nH]c3ccccc23)cc1 | -7.7 | – | –
CCc1ccccc1NC(=O)CN(C)C(=O)COC(=O)c1c(Cl)cccc1Cl | -9.39 | – | –
CCOC(=O)C1(CCCc2ccccc2)CCN(C(=O)CCN2CCCCC2=O)CC1 | -19 | 16.4 µM [falling, partial curve, poor fit] | –
COc1ccc(/C=N/NC(=S)Nc2ccccc2[N+](=O)[O-])cc1O | -34.9 | 23.1 µM [falling, partial curve, poor fit] | 29.1 µM [falling, partial curve]
Cc1ccc(CN2CCC(CO)(CC3CCCCO3)CC2)o1 (configuration not stated) | -12.9 | – | –
CC1(C)CC(=O)c2cnc(NC(=O)CCc3ccccc3)nc2C1 | 2.97 | 6.51 µM [rising, partial curve, poor fit] | –
O=C(CSc1nc2cc(Cl)ccc2s1)c1cc2ccccc2o1 | 49.5 | – | 0.259 µM [rising, partial curve]
Cc1ccc(-n2nnnc2SCC(=O)Nc2cccnc2Cl)cc1 | 2.37 | 32.6 µM [falling, single point] | –

Structure (SMILES) | cell number change [%] | AC50 [1] | AC50 [2]
O=C(Nc1ccccc1)N1CCC(=S)Nc2ccccc21 | -24.5 | 13 µM [falling, partial curve, poor fit] | –
O=C(COc1cccc(Oc2ccccc2)c1)Nc1ncccn1 | – | – | 4.61 µM [falling, single point]
CCOCCCNC(=O)C(c1ccc(Cl)cc1)N1CCN(C(=O)c2ccco2)CC1 (configuration not stated) | – | 5.17 µM [falling, full curve] | –
Clc1nc(-c2n[nH]nc2Cl)n[nH]1 | -0.501 | 16.4 µM [falling, single point] | –
Cc1occc1-c1n[nH]c(=S)n1-c1ccccc1 | -3.7 | 0.461 µM [falling, single point] | –
CCOC(=O)C(NC(=O)Nc1ccc(C(N)=O)cc1)(c1ccccc1)C(F)(F)F (configuration not stated) | -1.98 | 18.4 µM [falling, single point] | –
Cc1cccc(-c2nc(CS(=O)CC(=O)N3CCCCC3)c(C)o2)c1 (configuration not stated) | 32.8 | 2.31 µM [rising, full curve, poor fit] | 25.9 µM [rising, single point]
CN(C)CCCN1C(=O)c2cccc3cccc(c23)C1=O | -0.787 | 29.1 µM [rising, single point] | –
Cc1ccccc1C#N | -4.66 | 2.59 µM [rising, single point] | –
Cc1cc(SCc2ccc(Cl)cc2)nc(=O)[nH]1 | -4.82 | 6.51 µM [rising, single point] | –
COC(=O)Nc1ccc(S(=O)(=O)N2CCCC(C(=O)O)C2)cc1 (configuration not stated) | -53.4 | – | –
CCOc1ccc(NC(=O)CN2C(=O)CSc3ccc(S(=O)(=O)N4CCCC4)cc32)cc1 | 38 | 23.1 µM [rising, partial curve] | 29.1 µM [rising, single point]
O=[N+]([O-])c1ccccc1S(=O)(=O)N1CCN(c2ccc(F)cc2)CC1 | -5.22 | – | –
Cc1ccccc1NC(=O)CN1C(=O)COc2ccc(Cl)cc21 | 1.01 | – | –
O=CN1CCN(S(=O)(=O)c2ccc(Cl)c(C(=O)O)c2)CC1 | 9.9 | 4.11 µM [rising, single point] | –
COc1ccc(C(=O)NCCN2CCN(C(=O)c3ccc(OC)cc3)CC2)cc1 | 43.1 | 29.1 µM [rising, single point] | 29.1 µM [rising, single point]
CCc1ccccc1NC(=O)[C@@H]1CCC(=O)N1C1OC(=O)c2ccccc21 (some centres not stated) | 12.3 | – | –
COc1ccc(OCc2cc(C(=O)NCC(C)(C)N3CCOCC3)no2)c(Cl)c1 | 11.1 | 4.61 µM [rising, partial curve, poor fit] | 2.31 µM [rising, partial curve, poor fit]
CCCCN1C(=S)SC(C)(C)C1/[N+]([O-])=C/c1cccnc1 (configuration not stated) | -26.2 | – | 0.164 µM [falling, full curve, poor fit]
COc1ccccc1NC(=O)Cn1c(CN2CCCCC2)nc2ccccc2c1=O | 11.1 | – | –
COc1ccc(NC(=O)CN(C)S(=O)(=O)c2cccc3nsnc23)cc1OC | 10.2 | 14.6 µM [rising, partial curve] | –

Structure (SMILES) | cell number change [%] | AC50 [1] | AC50 [2]
Cc1cccc(C(=O)N2CC3(C)CC2CC(C)(C)C3)c1 (configuration not stated) | -19.3 | – | –
COc1ccc(CNC(=O)CN(Cc2ccco2)C(=O)CCC(=O)Nc2ccccn2)cc1 | 15.3 | 6.51 µM [rising, partial curve, poor fit] | –
CC(=O)c1cccc(CN2CCC(n3nccc3NC(=O)c3ccc4c(c3)OCO4)CC2)c1 | -36.3 | – | –
O=C(Nc1cc(-c2nc3ncccc3o2)ccc1Cl)c1ccc2c(c1)OCO2 | 4.46 | 0.00411 µM [rising, full curve, poor fit] | –
CC(=O)c1c(C)[nH]c(C(=O)N2CC(C)CC(C)C2)c1C (configuration not stated) | 17 | – | –
O=C1CCCC2=C1C(c1ccccc1)CC(=O)N2c1ccc(F)cc1F (configuration not stated) | -24.2 | – | 0.116 µM [falling, full curve, poor fit]
CCOC(=O)CCCNC(=O)COC(=O)c1cccc(C)c1O | 7.52 | 10.3 µM [rising, partial curve] | –
Nc1c(C(=O)c2ccccc2)oc2ccc(Br)cc12 | -51 | – | 25.9 µM [falling, partial curve, poor fit]
N#Cc1cn(Cc2ccncc2)c(=O)[nH]c1=O | 12.8 | – | –
CCc1nnc(NC(=O)CSc2nnc(-c3ccoc3C)n2-c2cccc(C)c2)s1 | 58.9 | 5.8 µM [rising, full curve] | 18.4 µM [rising, single point]
CCCCCc1c(C)nc(NCc2ccccc2)[nH]c1=O | -48.7 | 5.17 µM [falling, full curve] | 5.17 µM [falling, full curve]
N=C(c1ccc([N+](=O)[O-])cc1)N1CCCCC1 | 34.6 | – | 29.1 µM [rising, single point]
COc1ccc(CNc2oc(COc3ccccc3Cl)nc2C#N)cc1 | 80.8 | – | –
Cc1cc(NC(=O)Cn2cnc3c(nnn3-c3ccc(C)c(Cl)c3)c2=O)no1 | -32.9 | 1.16 µM [rising, single point] | 7.31 µM [falling, single point]
O=C(COc1ccccc1)Nc1ccccc1N1CCCCC1 | -37.1 | 29.1 µM [falling, single point] | 18.4 µM [falling, single point]
CCC(=O)Nc1c(S(=O)(=O)c2ccccc2)c2nc3ccccc3nc2n1C(C)c1ccccc1 (configuration not stated) | -35.9 | 29.1 µM [falling, single point] | 29.1 µM [falling, single point]
O=C(Nc1cccnc1)c1c(F)c(F)c(F)c(F)c1F | -14 | 29.1 µM [falling, single point] | –
Cc1ccc(SCC(=O)OCC(=O)NCCC2=CCCCC2)cc1 | -25 | – | 0.651 µM [falling, full curve, poor fit]
COC(=O)C1=C(C)NC(=O)CC1c1cc(Br)ccc1F (configuration not stated) | 85.3 | – | 29.1 µM [rising, single point]
COc1ccc(Cc2nc3ccc(C(=O)N(C)CCc4cnn(C)c4)cc3o2)cc1OC | – | 6.51 µM [falling, single point] | –
COC(=O)c1cc(C(C)=O)c(C)[nH]c1=O | -0.94 | 6.51 µM [falling, single point] | –

Quoted at random: 4 records from the list.
Structure (SMILES) | cell number change [%] | AC50 [1] | AC50 [2]
COc1ccc(CNC(=O)CN(Cc2ccco2)C(=O)CCC(=O)Nc2ccccn2)cc1 | 15.3 | 6.51 µM [rising, partial curve, poor fit] | –
COc1ccc(CNc2oc(COc3ccccc3Cl)nc2C#N)cc1 | 80.8 | – | –
O=C1CCCC2=C1C(c1ccccc1)CC(=O)N2c1ccc(F)cc1F (configuration not stated) | -24.2 | – | 0.116 µM [falling, full curve, poor fit]
COC(=O)C1=C(C)NC(=O)CC1c1cc(Br)ccc1F (configuration not stated) | 85.3 | – | 29.1 µM [rising, single point]

— PubChem BioAssay AID2685 (National Center for Advancing Translational Sciences (NCATS), 2010)
